Data as given in PubChem BioAssay AID1508597 (Cure First, 2020).
Test: 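Genes whose silencing sensitises or protects ovarian cancer cells against rucaparib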 (primary screen). Cells: human ovarian carcinoma lines grown from tumours: OCI-P5x (papillary serous) and OCI-C5x (clear cell). Knock-down reagent: siRNA pool against human genes, 1.25 pmol siRNA per well. Timing: 72 h or 96 h, depending on the cell culture. Treatment: rucaparib 20 µM (about IC30) or vehicle, present until read-out. Read-out: 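ATP luminescence measured at 72 or 96 h according to the culture, then normalised and expressed as percent viability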. Reading the numbers: viability, normalised: higher = more viable cells remaining. Call rule: 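a well counts as a hit if its normalised viability is under 80 percent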. Meaning of the calls: active = viability under 80%; inactive = viability 80% or more.
The whole screen tested about 2,100 reagents; shown is a part drawn at random. 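Calls flag viability under 80% in either arm, not effects specific to rucaparib; the reference for percent is not stated.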 Reagent sequences are not shown. Not given: the 100% reference.

MED1, rucaparib or vehicle Rucaparib, cell line OCI-C5x (clear cell), technical replicate 1 → viability, normalised (%): 53.5; call: active
MED1, rucaparib or vehicle Rucaparib, cell line OCI-C5x (clear cell), technical replicate 2 → viability, normalised (%): 44.4; call: active
MED1, rucaparib or vehicle Rucaparib, cell line OCI-C5x (clear cell), technical replicate 3 → viability, normalised (%): 41; call: active
MED1, rucaparib or vehicle Rucaparib, cell line OCI-P5x (serous), technical replicate 1 → viability, normalised (%): 54.1; call: active
MED1, rucaparib or vehicle Rucaparib, cell line OCI-P5x (serous), technical replicate 2 → viability, normalised (%): 64; call: active
MED1, rucaparib or vehicle Rucaparib, cell line OCI-P5x (serous), technical replicate 3 → viability, normalised (%): 55.8; call: active
MED1, rucaparib or vehicle Vehicle, cell line OCI-C5x (clear cell), technical replicate 1 → viability, normalised (%): 56.8; call: active
MED1, rucaparib or vehicle Vehicle, cell line OCI-C5x (clear cell), technical replicate 2 → viability, normalised (%): 56.5; call: active
MED1, rucaparib or vehicle Vehicle, cell line OCI-C5x (clear cell), technical replicate 3 → viability, normalised (%): 58.4; call: active
MED1, rucaparib or vehicle Vehicle, cell line OCI-P5x (serous), technical replicate 1 → viability, normalised (%): 63.3; call: active
MED1, rucaparib or vehicle Vehicle, cell line OCI-P5x (serous), technical replicate 2 → viability, normalised (%): 69.6; call: active
MED1, rucaparib or vehicle Vehicle, cell line OCI-P5x (serous), technical replicate 3 → viability, normalised (%): 76.8; call: active
BMI1, rucaparib or vehicle Rucaparib, cell line OCI-C5x (clear cell), technical replicate 1 → viability, normalised (%): 43.8; call: active
BMI1, rucaparib or vehicle Rucaparib, cell line OCI-C5x (clear cell), technical replicate 2 → viability, normalised (%): 53.8; call: active
BMI1, rucaparib or vehicle Rucaparib, cell line OCI-C5x (clear cell), technical replicate 3 → viability, normalised (%): 54.1; call: active
BMI1, rucaparib or vehicle Rucaparib, cell line OCI-P5x (serous), technical replicate 1 → viability, normalised (%): 90.5; call: inactive
BMI1, rucaparib or vehicle Rucaparib, cell line OCI-P5x (serous), technical replicate 2 → viability, normalised (%): 88.5; call: inactive
BMI1, rucaparib or vehicle Rucaparib, cell line OCI-P5x (serous), technical replicate 3 → viability, normalised (%): 104; call: inactive
BMI1, rucaparib or vehicle Vehicle, cell line OCI-C5x (clear cell), technical replicate 1 → viability, normalised (%): 42.2; call: active
BMI1, rucaparib or vehicle Vehicle, cell line OCI-C5x (clear cell), technical replicate 2 → viability, normalised (%): 35.5; call: active
BMI1, rucaparib or vehicle Vehicle, cell line OCI-C5x (clear cell), technical replicate 3 → viability, normalised (%): 32.3; call: active
BMI1, rucaparib or vehicle Vehicle, cell line OCI-P5x (serous), technical replicate 1 → viability, normalised (%): 75.6; call: active
BMI1, rucaparib or vehicle Vehicle, cell line OCI-P5x (serous), technical replicate 2 → viability, normalised (%): 87.4; call: inactive
BMI1, rucaparib or vehicle Vehicle, cell line OCI-P5x (serous), technical replicate 3 → viability, normalised (%): 81.9; call: inactive
SOD2, rucaparib or vehicle Rucaparib, cell line OCI-C5x (clear cell), technical replicate 1 → viability, normalised (%): 45.2; call: active
SOD2, rucaparib or vehicle Rucaparib, cell line OCI-C5x (clear cell), technical replicate 2 → viability, normalised (%): 34.7; call: active
SOD2, rucaparib or vehicle Rucaparib, cell line OCI-C5x (clear cell), technical replicate 3 → viability, normalised (%): 54; call: active
SOD2, rucaparib or vehicle Rucaparib, cell line OCI-P5x (serous), technical replicate 1 → viability, normalised (%): 59.6; call: active
SOD2, rucaparib or vehicle Rucaparib, cell line OCI-P5x (serous), technical replicate 2 → viability, normalised (%): 56.8; call: active
SOD2, rucaparib or vehicle Rucaparib, cell line OCI-P5x (serous), technical replicate 3 → viability, normalised (%): 53.4; call: active
SOD2, rucaparib or vehicle Vehicle, cell line OCI-C5x (clear cell), technical replicate 1 → viability, normalised (%): 47.6; call: active
SOD2, rucaparib or vehicle Vehicle, cell line OCI-C5x (clear cell), technical replicate 2 → viability, normalised (%): 44.1; call: active
SOD2, rucaparib or vehicle Vehicle, cell line OCI-C5x (clear cell), technical replicate 3 → viability, normalised (%): 45.7; call: active
SOD2, rucaparib or vehicle Vehicle, cell line OCI-P5x (serous), technical replicate 1 → viability, normalised (%): 40.4; call: active
SOD2, rucaparib or vehicle Vehicle, cell line OCI-P5x (serous), technical replicate 2 → viability, normalised (%): 44.4; call: active
SOD2, rucaparib or vehicle Vehicle, cell line OCI-P5x (serous), technical replicate 3 → viability, normalised (%): 51.5; call: active
CABIN1, rucaparib or vehicle Rucaparib, cell line OCI-C5x (clear cell), technical replicate 1 → viability, normalised (%): 56.5; call: active
CABIN1, rucaparib or vehicle Rucaparib, cell line OCI-C5x (clear cell), technical replicate 2 → viability, normalised (%): 30.9; call: active
CABIN1, rucaparib or vehicle Rucaparib, cell line OCI-C5x (clear cell), technical replicate 3 → viability, normalised (%): 36.7; call: active
CABIN1, rucaparib or vehicle Rucaparib, cell line OCI-P5x (serous), technical replicate 1 → viability, normalised (%): 69.3; call: active
CABIN1, rucaparib or vehicle Rucaparib, cell line OCI-P5x (serous), technical replicate 2 → viability, normalised (%): 62.4; call: active
CABIN1, rucaparib or vehicle Rucaparib, cell line OCI-P5x (serous), technical replicate 3 → viability, normalised (%): 71.9; call: active
CABIN1, rucaparib or vehicle Vehicle, cell line OCI-C5x (clear cell), technical replicate 1 → viability, normalised (%): 31.7; call: active
CABIN1, rucaparib or vehicle Vehicle, cell line OCI-C5x (clear cell), technical replicate 2 → viability, normalised (%): 45.1; call: active
CABIN1, rucaparib or vehicle Vehicle, cell line OCI-C5x (clear cell), technical replicate 3 → viability, normalised (%): 26.5; call: active
CABIN1, rucaparib or vehicle Vehicle, cell line OCI-P5x (serous), technical replicate 1 → viability, normalised (%): 60.3; call: active
CABIN1, rucaparib or vehicle Vehicle, cell line OCI-P5x (serous), technical replicate 2 → viability, normalised (%): 81.1; call: inactive
CABIN1, rucaparib or vehicle Vehicle, cell line OCI-P5x (serous), technical replicate 3 → viability, normalised (%): 47.7; call: active

A portion taken from the entries so far, as a working copy:
CABIN1, rucaparib or vehicle Rucaparib, cell line OCI-P5x (serous), technical replicate 3 → viability, normalised (%): 71.9; call: active
CABIN1, rucaparib or vehicle Vehicle, cell line OCI-C5x (clear cell), technical replicate 1 → viability, normalised (%): 31.7; call: active
CABIN1, rucaparib or vehicle Vehicle, cell line OCI-C5x (clear cell), technical replicate 2 → viability, normalised (%): 45.1; call: active
CABIN1, rucaparib or vehicle Vehicle, cell line OCI-C5x (clear cell), technical replicate 3 → viability, normalised (%): 26.5; call: active
CABIN1, rucaparib or vehicle Vehicle, cell line OCI-P5x (serous), technical replicate 1 → viability, normalised (%): 60.3; call: active
CABIN1, rucaparib or vehicle Vehicle, cell line OCI-P5x (serous), technical replicate 2 → viability, normalised (%): 81.1; call: inactive
